No constants are given. Whether binding was seen depends on the method and setting. In cells and extracts the contact can be indirect. Some binding calls cover weakened binding; strength is not graded here.
Target: G3BP1, endogenous in RD cells (human (endogenous in RD)) (UniProt Q13283)
Experiment: co-IP; endogenous proteins; RD cells infected with CA16 (MOI 1, 4 h) or mock infected; RIPA lysates incubated with 1 ug antibody (anti-G3BP1, anti-HDAC6 or anti-p62) at 4°C overnight, protein A/G agarose, Western blot

Protein sequences, listed by entry. Tags and fused reporters are not part of them.
UniProt Q13283: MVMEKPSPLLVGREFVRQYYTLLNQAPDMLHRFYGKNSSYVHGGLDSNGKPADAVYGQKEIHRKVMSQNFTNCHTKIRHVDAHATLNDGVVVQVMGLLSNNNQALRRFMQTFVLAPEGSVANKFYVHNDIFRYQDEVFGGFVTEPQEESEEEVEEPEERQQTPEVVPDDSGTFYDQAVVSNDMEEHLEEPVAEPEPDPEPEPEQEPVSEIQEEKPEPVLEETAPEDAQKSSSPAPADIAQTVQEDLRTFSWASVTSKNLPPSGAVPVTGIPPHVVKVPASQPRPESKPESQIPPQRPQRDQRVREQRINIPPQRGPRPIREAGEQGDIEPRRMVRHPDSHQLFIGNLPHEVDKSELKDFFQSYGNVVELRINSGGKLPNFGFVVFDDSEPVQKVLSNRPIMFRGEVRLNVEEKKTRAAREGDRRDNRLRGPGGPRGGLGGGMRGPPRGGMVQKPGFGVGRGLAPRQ
UniProt Q9UBN7: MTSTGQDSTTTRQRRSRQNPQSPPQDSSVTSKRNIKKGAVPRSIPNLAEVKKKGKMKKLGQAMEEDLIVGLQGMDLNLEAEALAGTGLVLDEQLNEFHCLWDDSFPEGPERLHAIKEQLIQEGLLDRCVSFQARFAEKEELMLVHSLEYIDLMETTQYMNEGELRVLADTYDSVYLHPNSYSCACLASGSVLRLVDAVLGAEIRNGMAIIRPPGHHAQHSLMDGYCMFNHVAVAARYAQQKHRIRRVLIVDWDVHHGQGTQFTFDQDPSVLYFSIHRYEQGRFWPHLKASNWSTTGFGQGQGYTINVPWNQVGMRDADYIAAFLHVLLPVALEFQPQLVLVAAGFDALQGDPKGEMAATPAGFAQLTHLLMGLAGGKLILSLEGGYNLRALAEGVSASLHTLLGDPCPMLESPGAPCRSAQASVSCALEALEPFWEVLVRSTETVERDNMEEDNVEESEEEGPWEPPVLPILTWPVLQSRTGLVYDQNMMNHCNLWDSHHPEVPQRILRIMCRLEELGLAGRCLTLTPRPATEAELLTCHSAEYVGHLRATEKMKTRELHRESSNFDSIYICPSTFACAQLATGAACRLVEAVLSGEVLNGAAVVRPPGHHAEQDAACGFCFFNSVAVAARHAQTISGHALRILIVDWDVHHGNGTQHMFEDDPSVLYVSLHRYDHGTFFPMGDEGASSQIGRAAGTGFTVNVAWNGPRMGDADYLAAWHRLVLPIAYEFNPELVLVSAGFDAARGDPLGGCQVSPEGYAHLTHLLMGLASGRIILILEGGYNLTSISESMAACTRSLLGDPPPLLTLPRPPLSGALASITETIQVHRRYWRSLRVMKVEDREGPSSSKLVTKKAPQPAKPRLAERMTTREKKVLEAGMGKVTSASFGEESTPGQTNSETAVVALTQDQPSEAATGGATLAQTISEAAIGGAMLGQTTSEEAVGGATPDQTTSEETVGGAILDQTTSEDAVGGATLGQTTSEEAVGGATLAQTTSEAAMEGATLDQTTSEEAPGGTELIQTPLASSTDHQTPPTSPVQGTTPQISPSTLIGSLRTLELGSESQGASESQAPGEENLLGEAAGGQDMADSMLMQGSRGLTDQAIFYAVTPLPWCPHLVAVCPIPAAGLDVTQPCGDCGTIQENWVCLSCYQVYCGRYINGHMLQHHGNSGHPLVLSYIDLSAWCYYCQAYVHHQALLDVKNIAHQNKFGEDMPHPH

Substance: histone deacetylase 6 (HDAC6), endogenous in RD cells (from UniProt Q9UBN7 1-1215)
- binding: binds
